# PubChem BioAssay AID743121 – NCATS, 2013
# Purpose: 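Genes whose silencing strengthens cell killing by camptothecin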 (primary screen)
# System: MDA-MB-231 cells, a human breast cancer line
# Knock-down reagent: single siRNA against human genes, 20 nM siRNA (0.8 pmol per well)
# Timing: 120 h (drug added 48 h after transfection, read 72 h later)
# Treatment: camptothecin 20 nM (about EC30) for 72 h; vehicle 0.1% DMSO in parallel plates
# Read-out: 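Cell viability by ATP luminescence (CellTiter-Glo) as % of non-targeting siRNA wells, and the log2 ratio of viability without drug over viability with camptothecin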
# Scale: log2 vehicle/camptothecin viability: higher = stronger sensitisation to camptothecin; viability with camptothecin: higher = more viable cells
# Call rule: 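Each gene scored by redundant siRNA activity (RSA) over its individual siRNA ratios; a gene is called active at p < 0.001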
# The whole screen tested about 26,000 reagents; shown is a random part of them. Of all reagents, 167 (0.63%) are marked active. 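Calls are per gene from RSA p-values that are not deposited; an individual active-marked siRNA can sensitise only weakly.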 A number with no mark means an inactive call. The numbers tell different reagents against one gene apart. Further read-outs or replicates are left out here. Reagent sequences are not shown.
gene knocked down,reagent no.,log2 vehicle/camptothecin viability,viability with camptothecin (% of control)
APLP2 (amyloid beta precursor like protein 2),1,-0.112,36.2
APLP2 (amyloid beta precursor like protein 2),2,0.0194,92.5
APLP2 (amyloid beta precursor like protein 2),3,0.451,54.4
"PTPRVP (protein tyrosine phosphatase receptor type V, pseudogene)",1,0.132,90.9
"PTPRVP (protein tyrosine phosphatase receptor type V, pseudogene)",2,-0.34,59.3
"PTPRVP (protein tyrosine phosphatase receptor type V, pseudogene)",3,0.141,67.5
"PTPRVP (protein tyrosine phosphatase receptor type V, pseudogene)",4,-0.00432,80
ADK (adenosine kinase),1,-0.269,63.4
ADK (adenosine kinase),2,-0.432,94.2
ADK (adenosine kinase),3,-0.809,101
ADK (adenosine kinase),4,0.0971,73.8
HDC (histidine decarboxylase),1,-0.346,123
HDC (histidine decarboxylase),2,-0.0394,95.1
HDC (histidine decarboxylase),3,-0.386,101
HDC (histidine decarboxylase),4,-0.441,80.9
MIF (macrophage migration inhibitory factor),1,0.176,80.9
MIF (macrophage migration inhibitory factor),2,-0.0166,102
MIF (macrophage migration inhibitory factor),3,0.299,57.2
TAS2R13 (taste 2 receptor member 13),1,-0.16,106
TAS2R13 (taste 2 receptor member 13),2,-0.106,93
TAS2R13 (taste 2 receptor member 13),3,-0.37,127
TAS2R13 (taste 2 receptor member 13),4,-0.686,99
SRPK1 (SRSF protein kinase 1),1,0.0721,46.7
SRPK1 (SRSF protein kinase 1),2,0.325,62
SRPK1 (SRSF protein kinase 1),3,0.00476,84.7
SRPK1 (SRSF protein kinase 1),4,0.112,95.1
ZIC2 (Zic family zinc finger 2),1,0.282,55
ZIC2 (Zic family zinc finger 2),2,0.246,63.4
ZIC2 (Zic family zinc finger 2),3,0.0187,107
ZIC2 (Zic family zinc finger 2),4,-0.49,76.8
ADAP1 (ArfGAP with dual PH domains 1),1,-0.0527,67.3
ADAP1 (ArfGAP with dual PH domains 1),2,-0.297,85.2
ADAP1 (ArfGAP with dual PH domains 1),3,0.241,35.8
GTPBP4 (GTP binding protein 4),1,-0.443,71.7
GTPBP4 (GTP binding protein 4),2,-0.438,52.8
GTPBP4 (GTP binding protein 4),3,-0.409,67.9
RGS5 (regulator of G protein signaling 5),1,-0.386,86
RGS5 (regulator of G protein signaling 5),2,-0.136,57.6
RGS5 (regulator of G protein signaling 5),3,-0.0527,107
RGS5 (regulator of G protein signaling 5),4,-0.562,99.1
LIMK2 (LIM domain kinase 2),1,-0.214,94.4
LIMK2 (LIM domain kinase 2),2,0.0371,49.3
LIMK2 (LIM domain kinase 2),3,-0.175,84.6
LIMK2 (LIM domain kinase 2),4,-0.28,57.8
GIPR (gastric inhibitory polypeptide receptor),1,-0.0319,125
GIPR (gastric inhibitory polypeptide receptor),2,-0.226,82.2
GIPR (gastric inhibitory polypeptide receptor),3,-0.716,65.5
GIPR (gastric inhibitory polypeptide receptor),4,-0.328,68.1
MAFA (MAF bZIP transcription factor A),1,-0.25,88.7
MAFA (MAF bZIP transcription factor A),2,0.000478,91.2
MAFA (MAF bZIP transcription factor A),3,0.789,12.2
MAFA (MAF bZIP transcription factor A),4,0.23,63.3
GFRAL (GDNF family receptor alpha like),1,-0.111,73.8
GFRAL (GDNF family receptor alpha like),2,-0.28,109
GFRAL (GDNF family receptor alpha like),3,-0.365,37.6
GFRAL (GDNF family receptor alpha like),4,-0.385,90.6
WNT7A (Wnt family member 7A),1,-0.0757,88.4
WNT7A (Wnt family member 7A),2,-0.341,42.4
WNT7A (Wnt family member 7A),3,-0.256,103
WNT7A (Wnt family member 7A),4,0.122,85.9

14 entries from above, arranged by “viability with camptothecin (% of control)”, descending:
gene knocked down,reagent no.,log2 vehicle/camptothecin viability,viability with camptothecin (% of control)
ZIC2 (Zic family zinc finger 2),3,0.0187,107
RGS5 (regulator of G protein signaling 5),3,-0.0527,107
SRPK1 (SRSF protein kinase 1),4,0.112,95.1
RGS5 (regulator of G protein signaling 5),1,-0.386,86
ADAP1 (ArfGAP with dual PH domains 1),2,-0.297,85.2
ZIC2 (Zic family zinc finger 2),4,-0.49,76.8
GTPBP4 (GTP binding protein 4),1,-0.443,71.7
GTPBP4 (GTP binding protein 4),3,-0.409,67.9
ADAP1 (ArfGAP with dual PH domains 1),1,-0.0527,67.3
ZIC2 (Zic family zinc finger 2),2,0.246,63.4
RGS5 (regulator of G protein signaling 5),2,-0.136,57.6
ZIC2 (Zic family zinc finger 2),1,0.282,55
GTPBP4 (GTP binding protein 4),2,-0.438,52.8
ADAP1 (ArfGAP with dual PH domains 1),3,0.241,35.8

Continued.
gene knocked down,reagent no.,log2 vehicle/camptothecin viability,viability with camptothecin (% of control)
TOR1A (torsin family 1 member A),1,-0.121,110
TOR1A (torsin family 1 member A),2,-0.0627,80.6
TOR1A (torsin family 1 member A),3,-0.000107,57.4
TOR1A (torsin family 1 member A),4,-0.00161,93.3
RNF170 (ring finger protein 170),1,-0.158,49.1
RNF170 (ring finger protein 170),2,0.0862,74.6
RNF170 (ring finger protein 170),3,-0.0808,82.4
RNF170 (ring finger protein 170),4,0.143,59.7
BCAT2 (branched chain amino acid transaminase 2),1,0,106
BCAT2 (branched chain amino acid transaminase 2),2,0.128,111
BCAT2 (branched chain amino acid transaminase 2),3,-0.524,74.9
PRDX4 (peroxiredoxin 4),1,-0.44,103
PRDX4 (peroxiredoxin 4),2,-0.091,121
PRDX4 (peroxiredoxin 4),3,-0.383,61.4
GM2A (ganglioside GM2 activator),1,0.4,54.6
GM2A (ganglioside GM2 activator),2,-0.171,75.2
GM2A (ganglioside GM2 activator),3,-0.176,106
GM2A (ganglioside GM2 activator),4,-0.0521,94.7
RBM8A (RNA binding motif protein 8A),1,-0.438,3.5
RBM8A (RNA binding motif protein 8A),2,-0.0784,2.58
RBM8A (RNA binding motif protein 8A),3,0.355,2.71
RBM8A (RNA binding motif protein 8A),4,-0.0112,12.5
PPP2R2D (protein phosphatase 2 regulatory subunit Bdelta),1,0.129,82.4
PPP2R2D (protein phosphatase 2 regulatory subunit Bdelta),2,-0.284,98.9
PPP2R2D (protein phosphatase 2 regulatory subunit Bdelta),3,0.519,52.5
PPP2R2D (protein phosphatase 2 regulatory subunit Bdelta),4,-0.102,104
SLC9A6,1,-0.379,97.3
SLC9A6,2,-0.183,86.5
SLC9A6,3,-0.414,126
SLC9A6,4,-0.459,115
